Article PMC7950113
No constants are given. Whether binding was seen depends on the method and setting. In cells and extracts the contact can be indirect. Here binding means that the protein was enriched with, or labelled near, the bait; the list need not be complete. Tags and fused reporters may be left off the sequences shown.

The chains behind the UniProt entries cited, without tags or fusion partners. Where a name states a change or a piece, a line headed by the entry shows the natural chain unless it says otherwise. A line that says so, or that is headed by a name, gives the form on record, which may keep a tag or linker. Residues count along the entry.
FLAG-tagged thyroglobulin, WT (P01266, residues 20-2768): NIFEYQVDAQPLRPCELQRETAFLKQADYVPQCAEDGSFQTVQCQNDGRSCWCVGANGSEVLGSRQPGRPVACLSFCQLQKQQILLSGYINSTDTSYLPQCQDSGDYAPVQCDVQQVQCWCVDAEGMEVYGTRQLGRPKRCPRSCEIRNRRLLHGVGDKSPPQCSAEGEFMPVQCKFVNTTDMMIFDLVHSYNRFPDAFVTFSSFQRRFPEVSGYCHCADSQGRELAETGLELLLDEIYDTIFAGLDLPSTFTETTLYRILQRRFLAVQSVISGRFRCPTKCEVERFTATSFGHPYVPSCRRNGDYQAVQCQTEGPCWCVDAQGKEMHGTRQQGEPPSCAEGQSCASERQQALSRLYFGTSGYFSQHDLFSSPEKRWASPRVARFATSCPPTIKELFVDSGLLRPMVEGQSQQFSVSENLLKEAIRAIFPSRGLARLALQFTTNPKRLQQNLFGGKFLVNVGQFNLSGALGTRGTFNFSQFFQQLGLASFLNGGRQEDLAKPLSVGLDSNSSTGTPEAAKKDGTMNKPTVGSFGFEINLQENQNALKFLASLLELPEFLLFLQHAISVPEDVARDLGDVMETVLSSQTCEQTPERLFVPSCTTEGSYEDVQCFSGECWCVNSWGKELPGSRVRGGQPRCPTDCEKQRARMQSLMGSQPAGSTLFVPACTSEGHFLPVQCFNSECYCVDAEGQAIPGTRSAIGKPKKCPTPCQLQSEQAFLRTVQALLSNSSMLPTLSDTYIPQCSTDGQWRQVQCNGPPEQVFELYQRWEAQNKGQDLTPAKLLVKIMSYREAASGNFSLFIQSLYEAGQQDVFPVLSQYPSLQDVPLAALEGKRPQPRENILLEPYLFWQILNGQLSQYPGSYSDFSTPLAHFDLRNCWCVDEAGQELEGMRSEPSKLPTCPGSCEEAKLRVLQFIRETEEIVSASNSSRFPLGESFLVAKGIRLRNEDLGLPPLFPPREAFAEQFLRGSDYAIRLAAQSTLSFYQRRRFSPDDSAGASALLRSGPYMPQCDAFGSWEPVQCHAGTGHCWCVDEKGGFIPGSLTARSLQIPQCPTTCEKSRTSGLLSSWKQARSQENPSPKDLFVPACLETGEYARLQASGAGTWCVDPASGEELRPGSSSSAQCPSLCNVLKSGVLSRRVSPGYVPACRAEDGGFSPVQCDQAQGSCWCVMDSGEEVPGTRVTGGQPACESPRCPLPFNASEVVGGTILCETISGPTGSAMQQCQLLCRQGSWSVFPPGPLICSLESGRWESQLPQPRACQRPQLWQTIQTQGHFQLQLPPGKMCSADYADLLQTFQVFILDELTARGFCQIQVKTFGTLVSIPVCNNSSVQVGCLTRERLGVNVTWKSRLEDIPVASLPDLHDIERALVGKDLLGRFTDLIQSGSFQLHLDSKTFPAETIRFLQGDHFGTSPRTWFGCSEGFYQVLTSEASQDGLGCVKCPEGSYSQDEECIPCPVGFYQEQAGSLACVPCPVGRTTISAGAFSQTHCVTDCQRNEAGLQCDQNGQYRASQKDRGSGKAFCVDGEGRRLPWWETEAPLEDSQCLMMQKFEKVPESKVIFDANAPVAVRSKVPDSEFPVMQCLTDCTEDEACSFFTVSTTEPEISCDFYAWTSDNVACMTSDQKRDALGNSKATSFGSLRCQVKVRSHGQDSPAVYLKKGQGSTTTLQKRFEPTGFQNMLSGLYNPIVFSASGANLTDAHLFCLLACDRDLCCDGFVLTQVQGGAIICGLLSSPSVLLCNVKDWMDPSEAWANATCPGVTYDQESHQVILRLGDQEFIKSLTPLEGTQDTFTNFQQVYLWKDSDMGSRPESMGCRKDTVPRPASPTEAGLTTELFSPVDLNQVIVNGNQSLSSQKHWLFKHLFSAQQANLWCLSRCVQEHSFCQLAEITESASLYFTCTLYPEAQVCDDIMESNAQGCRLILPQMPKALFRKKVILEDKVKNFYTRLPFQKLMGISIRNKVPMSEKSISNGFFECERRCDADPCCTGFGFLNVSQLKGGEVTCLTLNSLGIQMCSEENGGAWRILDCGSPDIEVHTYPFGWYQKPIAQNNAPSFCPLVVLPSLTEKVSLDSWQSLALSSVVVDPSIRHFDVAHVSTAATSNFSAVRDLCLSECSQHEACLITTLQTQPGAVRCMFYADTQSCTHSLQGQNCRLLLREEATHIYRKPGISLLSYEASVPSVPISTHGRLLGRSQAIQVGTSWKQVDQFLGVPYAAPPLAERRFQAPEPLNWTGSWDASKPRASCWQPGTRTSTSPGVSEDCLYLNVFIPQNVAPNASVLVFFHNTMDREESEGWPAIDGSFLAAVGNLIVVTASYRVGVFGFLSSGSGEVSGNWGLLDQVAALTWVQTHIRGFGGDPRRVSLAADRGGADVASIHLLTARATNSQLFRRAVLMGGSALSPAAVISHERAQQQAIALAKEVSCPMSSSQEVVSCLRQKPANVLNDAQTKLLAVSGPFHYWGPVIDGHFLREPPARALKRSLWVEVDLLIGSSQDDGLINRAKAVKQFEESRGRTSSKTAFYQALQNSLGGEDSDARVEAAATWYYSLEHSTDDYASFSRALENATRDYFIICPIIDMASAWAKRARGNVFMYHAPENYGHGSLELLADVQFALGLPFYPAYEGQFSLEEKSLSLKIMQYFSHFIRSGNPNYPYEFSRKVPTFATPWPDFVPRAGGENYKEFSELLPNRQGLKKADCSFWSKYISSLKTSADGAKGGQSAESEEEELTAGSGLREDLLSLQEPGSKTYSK
FLAG-tagged thyroglobulin L2284P (P01266, form named): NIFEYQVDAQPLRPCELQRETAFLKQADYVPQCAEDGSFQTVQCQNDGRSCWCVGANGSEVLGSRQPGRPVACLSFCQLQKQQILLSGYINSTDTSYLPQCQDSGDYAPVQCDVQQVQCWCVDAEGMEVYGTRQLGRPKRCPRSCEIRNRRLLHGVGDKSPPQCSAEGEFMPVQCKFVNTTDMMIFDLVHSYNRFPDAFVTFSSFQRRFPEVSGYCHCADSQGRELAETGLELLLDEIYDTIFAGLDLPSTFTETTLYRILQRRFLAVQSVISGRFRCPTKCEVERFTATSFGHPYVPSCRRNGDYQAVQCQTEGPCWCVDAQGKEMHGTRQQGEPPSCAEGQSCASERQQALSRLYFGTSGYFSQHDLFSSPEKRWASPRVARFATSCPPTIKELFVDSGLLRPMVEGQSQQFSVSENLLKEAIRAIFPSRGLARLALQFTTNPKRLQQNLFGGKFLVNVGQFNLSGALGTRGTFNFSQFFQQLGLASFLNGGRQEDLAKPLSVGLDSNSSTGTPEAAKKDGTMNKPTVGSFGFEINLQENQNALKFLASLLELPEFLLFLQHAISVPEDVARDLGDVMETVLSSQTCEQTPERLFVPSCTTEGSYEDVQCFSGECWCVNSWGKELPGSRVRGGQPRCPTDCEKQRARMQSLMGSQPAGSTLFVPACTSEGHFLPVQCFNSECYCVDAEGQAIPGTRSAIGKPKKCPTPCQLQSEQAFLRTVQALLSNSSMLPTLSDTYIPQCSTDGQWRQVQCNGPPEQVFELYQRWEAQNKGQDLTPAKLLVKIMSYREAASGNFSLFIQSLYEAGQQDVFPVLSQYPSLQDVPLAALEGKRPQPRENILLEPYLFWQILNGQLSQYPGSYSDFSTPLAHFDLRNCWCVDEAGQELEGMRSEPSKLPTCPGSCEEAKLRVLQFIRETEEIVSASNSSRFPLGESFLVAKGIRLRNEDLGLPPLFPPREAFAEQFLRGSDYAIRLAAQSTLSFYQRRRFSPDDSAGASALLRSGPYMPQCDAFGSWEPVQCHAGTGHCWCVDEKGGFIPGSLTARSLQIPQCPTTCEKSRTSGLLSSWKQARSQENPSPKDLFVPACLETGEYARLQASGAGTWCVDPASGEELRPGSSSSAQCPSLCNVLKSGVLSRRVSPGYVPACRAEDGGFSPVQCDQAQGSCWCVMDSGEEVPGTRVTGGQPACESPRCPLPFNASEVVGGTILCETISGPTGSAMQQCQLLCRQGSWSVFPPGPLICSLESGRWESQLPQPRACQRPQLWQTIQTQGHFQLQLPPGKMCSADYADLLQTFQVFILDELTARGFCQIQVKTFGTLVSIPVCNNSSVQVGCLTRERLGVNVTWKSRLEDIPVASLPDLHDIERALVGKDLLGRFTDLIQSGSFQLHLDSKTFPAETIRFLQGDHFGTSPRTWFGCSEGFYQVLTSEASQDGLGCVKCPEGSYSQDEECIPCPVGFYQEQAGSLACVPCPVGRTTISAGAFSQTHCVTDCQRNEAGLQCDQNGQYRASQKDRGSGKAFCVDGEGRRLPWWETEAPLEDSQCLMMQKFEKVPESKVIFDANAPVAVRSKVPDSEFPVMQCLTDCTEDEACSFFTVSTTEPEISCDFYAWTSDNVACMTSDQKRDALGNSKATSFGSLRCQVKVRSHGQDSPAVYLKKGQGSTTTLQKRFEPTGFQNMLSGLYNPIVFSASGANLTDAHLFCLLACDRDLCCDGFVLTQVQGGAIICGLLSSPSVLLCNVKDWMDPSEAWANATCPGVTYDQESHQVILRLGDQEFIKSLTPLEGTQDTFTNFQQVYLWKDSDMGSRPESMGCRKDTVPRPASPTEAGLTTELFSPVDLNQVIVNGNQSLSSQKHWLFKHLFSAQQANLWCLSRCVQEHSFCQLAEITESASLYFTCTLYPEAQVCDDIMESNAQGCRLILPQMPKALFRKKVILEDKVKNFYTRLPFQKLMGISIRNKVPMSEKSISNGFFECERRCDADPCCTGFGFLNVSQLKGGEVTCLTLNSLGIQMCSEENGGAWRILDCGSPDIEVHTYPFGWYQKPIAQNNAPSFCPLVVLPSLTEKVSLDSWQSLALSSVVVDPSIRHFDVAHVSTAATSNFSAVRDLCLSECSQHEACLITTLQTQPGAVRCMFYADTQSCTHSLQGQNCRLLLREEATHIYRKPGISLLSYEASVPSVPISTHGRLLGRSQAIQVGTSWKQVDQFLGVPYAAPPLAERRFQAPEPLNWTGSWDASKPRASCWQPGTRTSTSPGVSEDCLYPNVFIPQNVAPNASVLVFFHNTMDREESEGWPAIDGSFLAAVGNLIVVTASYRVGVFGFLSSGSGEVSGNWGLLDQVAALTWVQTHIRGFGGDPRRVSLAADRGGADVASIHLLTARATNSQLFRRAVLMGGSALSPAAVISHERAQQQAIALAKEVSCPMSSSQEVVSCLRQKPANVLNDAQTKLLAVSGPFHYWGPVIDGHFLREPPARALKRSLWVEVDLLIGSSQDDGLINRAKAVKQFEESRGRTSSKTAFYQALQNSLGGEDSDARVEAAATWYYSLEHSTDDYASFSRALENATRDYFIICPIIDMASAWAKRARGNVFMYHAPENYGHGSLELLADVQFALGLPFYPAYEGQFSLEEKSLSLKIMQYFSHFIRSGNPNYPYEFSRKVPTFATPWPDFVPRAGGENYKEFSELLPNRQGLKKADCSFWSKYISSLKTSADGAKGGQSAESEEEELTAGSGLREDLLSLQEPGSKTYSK

B1: glucosidase II alpha subunit (protein, UniProt Q14697 29-944)
chain: ITLAVDRSNFKTCEESSFCKRQRSIRPGLSPYRALLDSLQLGPDSLTVHLIHEVTKVLLVLELQGLQKNMTRFRIDELEPRRPRYRVPDVLVADPPIARLSVSGRDENSVELTMAEGPYKIILTARPFRLDLLEDRSLLLSVNARGLLEFEHQRAPRVSQGSKDPAEGDGAQPEETPRDGDKPEETQGKAEKDEPGAWEETFKTHSDSKPYGPMSVGLDFSLPGMEHVYGIPEHADNLRLKVTEGGEPYRLYNLDVFQYELYNPMALYGSVPVLLAHNPHRDLGIFWLNAAETWVDISSNTAGKTLFGKMMDYLQGSGETPQTDVRWMSETGIIDVFLLLGPSISDVFRQYASLTGTQALPPLFSLGYHQSRWNYRDEADVLEVDQGFDDHNLPCDVIWLDIEHADGKRYFTWDPSRFPQPRTMLERLASKRRKLVAIVDPHIKVDSGYRVHEELRNLGLYVKTRDGSDYEGWCWPGSAGYPDFTNPTMRAWWANMFSYDNYEGSAPNLFVWNDMNEPSVFNGPEVTMLKDAQHYGGWEHRDVHNIYGLYVHMATADGLRQRSGGMERPFVLARAFFAGSQRFGAVWTGDNTAEWDHLKISIPMCLSLGLVGLSFCGADVGGFFKNPEPELLVRWYQMGAYQPFFRAHAHLDTGRREPWLLPSQHNDIIRDALGQRYSLLPFWYTLLYQAHREGIPVMRPLWVQYPQDVTTFNIDDQYLLGDALLVHPVSDSGAHGVQVYLPGQGEVWYDIQSYQKHHGPQTLYLPVTLSSIPVFQRGGTIVPRWMRVRRSSECMKDDPITLFVALSPQGTAQGELFLDDGHTFNYQTRQEFLLRRFSFSGNTLVSSSADPEGHFETPIWIERVVIIGAGKPAAVVLQTKGSPESRLSFQHDPETSVLVLRKPGINVASDWSIHLR
B2: DnaJ heat shock protein family member C10 (protein, UniProt Q8IXB1 33-793)
chain: DQDFYSLLGVSKTASSREIRQAFKKLALKLHPDKNPNNPNAHGDFLKINRAYEVLKDEDLRKKYDKYGEKGLEDNQGGQYESWNYYRYDFGIYDDDPEIITLERREFDAAVNSGELWFVNFYSPGCSHCHDLAPTWRDFAKEVDGLLRIGAVNCGDDRMLCRMKGVNSYPSLFIFRSGMAPVKYHGDRSKESLVSFAMQHVRSTVTELWTGNFVNSIQTAFAAGIGWLITFCSKGGDCLTSQTRLRLSGMLDGLVNVGWMDCATQDNLCKSLDITTSTTAYFPPGATLNNKEKNSILFLNSLDAKEIYLEVIHNLPDFELLSANTLEDRLAHHRWLLFFHFGKNENSNDPELKKLKTLLKNDHIQVGRFDCSSAPDICSNLYVFQPSLAVFKGQGTKEYEIHHGKKILYDILAFAKESVNSHVTTLGPQNFPANDKEPWLVDFFAPWCPPCRALLPELRRASNLLYGQLKFGTLDCTVHEGLCNMYNIQAYPTTVVFNQSNIHEYEGHHSAEQILEFIEDLMNPSVVSLTPTTFNELVTQRKHNEVWMVDFYSPWCHPCQVLMPEWKRMARTLTGLINVGSIDCQQYHSFCAQENVQRYPEIRFFPPKSNKAYHYHSYNGWNRDAYSLRIWGLGFLPQVSTDLTPQTFSEKVLQGKNHWVIDFYAPWCGPCQNFAPEFELLARMIKGKVKAGKVDCQAYAQTCQKAGIRAYPTVKFYFYERAKRNFQEEQINTRDAKAIAALISEKLETLRNQGKRNKDEL
B3: protein disulfide isomerase family A member 4 (protein, UniProt P13667 21-645)
chain: VAGAEGPDEDSSNRENAIEDEEEEEEEDDDEEEDDLEVKEENGVLVLNDANFDNFVADKDTVLLEFYAPWCGHCKQFAPEYEKIANILKDKDPPIPVAKIDATSASVLASRFDVSGYPTIKILKKGQAVDYEGSRTQEEIVAKVREVSQPDWTPPPEVTLVLTKENFDEVVNDADIILVEFYAPWCGHCKKLAPEYEKAAKELSKRSPPIPLAKVDATAETDLAKRFDVSGYPTLKIFRKGRPYDYNGPREKYGIVDYMIEQSGPPSKEILTLKQVQEFLKDGDDVIIIGVFKGESDPAYQQYQDAANNLREDYKFHHTFSTEIAKFLKVSQGQLVVMQPEKFQSKYEPRSHMMDVQGSTQDSAIKDFVLKYALPLVGHRKVSNDAKRYTRRPLVVVYYSVDFSFDYRAATQFWRSKVLEVAKDFPEYTFAIADEEDYAGEVKDLGLSESGEDVNAAILDESGKKFAMEPEEFDSDTLREFVTAFKKGKLKPVIKSQPVPKNNKGPVKVVVGKTFDSIVMDPKKDVLIEFYAPWCGHCKQLEPVYNSLAKKYKGQKGLVIAKMDATANDVPSDRYKVEGFPTIYFAPSGDKKNPVKFEGGDRDLEHLSKFIEEHATKLSRTKEEL
B4: oligosaccharyl transferase complex catalytic subunit B (protein, UniProt Q8TCJ2 1-826)
chain: MAEPSAPESKHKSSLNSSPWSGLMALGNSRHGHHGPGAQCAHKAAGGAAPPKPAPAGLSGGLSQPAGWQSLLSFTILFLAWLAGFSSRLFAVIRFESIIHEFDPWFNYRSTHHLASHGFYEFLNWFDERAWYPLGRIVGGTVYPGLMITAGLIHWILNTLNITVHIRDVCVFLAPTFSGLTSISTFLLTRELWNQGAGLLAACFIAIVPGYISRSVAGSFDNEGIAIFALQFTYYLWVKSVKTGSVFWTMCCCLSYFYMVSAWGGYVFIINLIPLHVFVLLLMQRYSKRVYIAYSTFYIVGLILSMQIPFVGFQPIRTSEHMAAAGVFALLQAYAFLQYLRDRLTKQEFQTLFFLGVSLAAGAVFLSVIYLTYTGYIAPWSGRFYSLWDTGYAKIHIPIIASVSEHQPTTWVSFFFDLHILVCTFPAGLWFCIKNINDERVFVALYAISAVYFAGVMVRLMLTLTPVVCMLSAIAFSNVFEHYLGDDMKRENPPVEDSSDEDDKRNQGNLYDKAGKVRKHATEQEKTEEGLGPNIKSIVTMLMLMLLMMFAVHCTWVTSNAYSSPSVVLASYNHDGTRNILDDFREAYFWLRQNTDEHARVMSWWDYGYQIAGMANRTTLVDNNTWNNSHIALVGKAMSSNETAAYKIMRTLDVDYVLVIFGGVIGYSGDDINKFLWMVRIAEGEHPKDIRESDYFTPQGEFRVDKAGSPTLLNCLMYKMSYYRFGEMQLDFRTPPGFDRTRNAEIGNKDIKFKHLEEAFTSEHWLVRIYKVKAPDNRETLDHKPRVTNIFPKQKYLSKKTTKRKRGYIKNKLVFKKGKKISKKTV
B5: TBC1D15 (protein, UniProt Q8TC07 1-691)
chain: MAAAGVVSGKIIYEQEGVYIHSSCGKTNDQDGLISGILRVLEKDAEVIVDWRPLDDALDSSSILYARKDSSSVVEWTQAPKERGHRGSEHLNSYEAEWDMVNTVSFKRKPHTNGDAPSHRNGKSKWSFLFSLTDLKSIKQNKEGMGWSYLVFCLKDDVVLPALHFHQGDSKLLIESLEKYVVLCESPQDKRTLLVNCQNKSLSQSFENLLDEPAYGLIQAGLLDRRKLLWAIHHWKKIKKDPYTATMIGFSKVTNYIFDSLRGSDPSTHQRPPSEMADFLSDAIPGLKINQQEEPGFEVITRIDLGERPVVQRREPVSLEEWTKNIDSEGRILNVDNMKQMIFRGGLSHALRKQAWKFLLGYFPWDSTKEERTQLQKQKTDEYFRMKLQWKSISQEQEKRNSRLRDYRSLIEKDVNRTDRTNKFYEGQDNPGLILLHDILMTYCMYDFDLGYVQGMSDLLSPLLYVMENEVDAFWCFASYMDQMHQNFEEQMQGMKTQLIQLSTLLRLLDSGFCSYLESQDSGYLYFCFRWLLIRFKREFSFLDILRLWEVMWTELPCTNFHLLLCCAILESEKQQIMEKHYGFNEILKHINELSMKIDVEDILCKAEAISLQMVKCKELPQAVCEILGLQGSEVTTPDSDVGEDENVVMTPCPTSAFQSNALPTLSASGARNDSPTQIPVSSDVCRLTPA
B6: thioredoxin-related transmembrane protein 1 (protein, UniProt Q9H3N1 27-280)
chain: RRSNVRVITDENWRELLEGDWMIEFYAPWCPACQNLQPEWESFAEWGEDLEVNIAKVDVTEQPGLSGRFIITALPTIYHCKDGEFRRYQGPRTKKDFINFISDKEWKSIEPVSSWFGPGSVLMSSMSALFQLSMWIRTCHNYFIEDLGLPVWGSYTVFALATLFSGLLLGLCMIFVADCLCPSKRRRPQPYPYPSKKLLSESAQPLKKVEEEQEADEEDVSEEEAESKEGTNKDFPQNAIRQRSLGPSLATDKS

Target: FLAG-tagged thyroglobulin L2284P (human) (UniProt P01266)
Experiment: affinity purification with mass spectrometry; FLAG-Tg variants transiently expressed in HEK293 cells; cells cross-linked with 0.5 mM DSP, RIPA lysate, M2 anti-flag agarose or G1 Anti-DYKDDDDK resin overnight at 4 °C, four RIPA washes; TMT sixplex LC-MS/MS against mock AP (untagged Tg, EGFP or tdTomato)

binding | Binder
binds | B1
binds | B3
binds | B4

Binder | binding
B2 | binds

Target: FLAG-tagged thyroglobulin A2234D (human) (UniProt P01266)
Experiment: as above

binding | Binder
binds | B1
binds | B3
binds | B4

Binder | binding
B2 | binds

Target: FLAG-tagged thyroglobulin G2341R (human) (UniProt P01266)
Experiment: as above

binding | Binder
binds | B1
binds | B3
binds | B5
binds | B4

Binder | binding
B2 | binds

Target: FLAG-tagged thyroglobulin, WT (human) (UniProt P01266)
Experiment: as above

binding | Binder
binds | B6
binds | B1
binds | B3
binds | B4

Binder | binding
B2 | binds

Target: FLAG-tagged thyroglobulin C1264R (human) (UniProt P01266)
Experiment: as above

binding | Binder
binds | B6
binds | B1
binds | B3
binds | B4

Binder | binding
B2 | binds
